# From the supplement of paper PMC10849652
# The chains behind the UniProt entries cited, without tags or fusion partners. Where a name states a change or a piece, a line headed by the entry shows the natural chain unless it says otherwise.
# UniProt P40227, whole entry, looked up: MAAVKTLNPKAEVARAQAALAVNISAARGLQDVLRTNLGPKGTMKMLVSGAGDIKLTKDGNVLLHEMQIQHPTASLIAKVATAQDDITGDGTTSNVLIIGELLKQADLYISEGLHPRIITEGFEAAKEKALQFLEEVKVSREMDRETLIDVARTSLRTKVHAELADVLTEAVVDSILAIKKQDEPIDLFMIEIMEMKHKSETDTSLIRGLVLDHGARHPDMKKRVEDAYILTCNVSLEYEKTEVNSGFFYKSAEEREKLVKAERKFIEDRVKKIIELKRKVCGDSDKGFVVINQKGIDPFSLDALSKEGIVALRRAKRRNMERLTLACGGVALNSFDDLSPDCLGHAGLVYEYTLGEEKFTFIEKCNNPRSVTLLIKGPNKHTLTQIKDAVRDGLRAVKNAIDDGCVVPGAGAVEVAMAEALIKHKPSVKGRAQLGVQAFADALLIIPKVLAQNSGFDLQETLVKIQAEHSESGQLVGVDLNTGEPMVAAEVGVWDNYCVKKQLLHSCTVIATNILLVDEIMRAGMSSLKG
# UniProt Q9Y2V2: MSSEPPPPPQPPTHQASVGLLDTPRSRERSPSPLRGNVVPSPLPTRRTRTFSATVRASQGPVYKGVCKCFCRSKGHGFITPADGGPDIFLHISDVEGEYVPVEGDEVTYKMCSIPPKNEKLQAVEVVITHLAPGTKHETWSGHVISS
# UniProt Q9GZT6: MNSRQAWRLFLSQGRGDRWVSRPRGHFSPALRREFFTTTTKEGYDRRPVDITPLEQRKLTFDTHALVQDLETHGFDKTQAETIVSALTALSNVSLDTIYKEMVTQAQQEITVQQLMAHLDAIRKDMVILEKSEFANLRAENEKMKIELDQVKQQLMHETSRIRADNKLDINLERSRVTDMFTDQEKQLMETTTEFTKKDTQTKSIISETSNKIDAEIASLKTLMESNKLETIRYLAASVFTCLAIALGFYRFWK
# UniProt Q8WXE0: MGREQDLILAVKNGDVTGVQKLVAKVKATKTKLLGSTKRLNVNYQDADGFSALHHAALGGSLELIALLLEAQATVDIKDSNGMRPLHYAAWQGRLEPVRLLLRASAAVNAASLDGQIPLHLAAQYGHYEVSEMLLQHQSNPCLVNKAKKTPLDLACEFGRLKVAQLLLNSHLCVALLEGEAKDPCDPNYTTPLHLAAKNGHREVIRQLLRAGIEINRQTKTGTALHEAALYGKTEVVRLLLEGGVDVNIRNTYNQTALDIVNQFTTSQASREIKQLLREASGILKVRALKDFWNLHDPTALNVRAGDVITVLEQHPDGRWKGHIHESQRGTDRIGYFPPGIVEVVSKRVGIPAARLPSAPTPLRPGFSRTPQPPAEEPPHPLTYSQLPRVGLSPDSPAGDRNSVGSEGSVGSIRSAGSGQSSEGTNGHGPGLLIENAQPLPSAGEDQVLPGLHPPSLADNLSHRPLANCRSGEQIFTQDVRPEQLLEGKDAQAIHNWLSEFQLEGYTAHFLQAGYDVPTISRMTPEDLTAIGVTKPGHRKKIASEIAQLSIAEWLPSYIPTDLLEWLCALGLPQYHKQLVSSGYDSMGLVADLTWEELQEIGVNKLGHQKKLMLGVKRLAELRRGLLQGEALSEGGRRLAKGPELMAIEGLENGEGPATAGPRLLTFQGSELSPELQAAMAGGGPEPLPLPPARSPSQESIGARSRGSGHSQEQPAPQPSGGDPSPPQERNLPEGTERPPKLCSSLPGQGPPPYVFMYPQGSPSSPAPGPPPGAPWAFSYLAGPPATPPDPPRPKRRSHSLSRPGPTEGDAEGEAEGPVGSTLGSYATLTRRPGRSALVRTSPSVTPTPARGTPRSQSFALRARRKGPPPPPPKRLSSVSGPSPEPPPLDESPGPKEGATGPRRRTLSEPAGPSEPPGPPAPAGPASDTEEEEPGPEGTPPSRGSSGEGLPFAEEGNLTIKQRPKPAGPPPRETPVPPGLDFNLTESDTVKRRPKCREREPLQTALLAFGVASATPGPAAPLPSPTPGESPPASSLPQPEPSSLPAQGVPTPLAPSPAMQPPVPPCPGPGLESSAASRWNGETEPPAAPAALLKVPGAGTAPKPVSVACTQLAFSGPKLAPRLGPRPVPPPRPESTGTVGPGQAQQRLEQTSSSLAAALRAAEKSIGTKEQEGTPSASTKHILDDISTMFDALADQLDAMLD
# UniProt Q96MW1: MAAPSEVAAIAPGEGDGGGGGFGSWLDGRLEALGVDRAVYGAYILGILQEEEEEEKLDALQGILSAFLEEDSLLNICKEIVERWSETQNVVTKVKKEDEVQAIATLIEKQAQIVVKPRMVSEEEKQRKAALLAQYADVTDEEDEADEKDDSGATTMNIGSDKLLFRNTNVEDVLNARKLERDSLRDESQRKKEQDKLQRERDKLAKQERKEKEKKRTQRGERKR
# UniProt O15446, whole entry, looked up: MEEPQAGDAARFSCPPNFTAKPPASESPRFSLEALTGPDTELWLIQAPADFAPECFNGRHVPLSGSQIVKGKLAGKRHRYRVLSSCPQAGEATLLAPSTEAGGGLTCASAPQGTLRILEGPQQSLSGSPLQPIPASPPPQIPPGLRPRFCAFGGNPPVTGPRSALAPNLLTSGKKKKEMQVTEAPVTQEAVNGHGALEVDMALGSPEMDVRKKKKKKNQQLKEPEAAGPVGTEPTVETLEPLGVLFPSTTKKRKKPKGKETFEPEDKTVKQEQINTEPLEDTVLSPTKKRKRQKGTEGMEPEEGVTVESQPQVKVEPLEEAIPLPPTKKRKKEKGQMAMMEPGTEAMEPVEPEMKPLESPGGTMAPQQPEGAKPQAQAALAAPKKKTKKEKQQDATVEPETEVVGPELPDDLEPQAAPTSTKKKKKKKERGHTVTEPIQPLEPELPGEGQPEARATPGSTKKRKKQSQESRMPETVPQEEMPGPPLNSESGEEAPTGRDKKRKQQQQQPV
# UniProt Q8N7R7: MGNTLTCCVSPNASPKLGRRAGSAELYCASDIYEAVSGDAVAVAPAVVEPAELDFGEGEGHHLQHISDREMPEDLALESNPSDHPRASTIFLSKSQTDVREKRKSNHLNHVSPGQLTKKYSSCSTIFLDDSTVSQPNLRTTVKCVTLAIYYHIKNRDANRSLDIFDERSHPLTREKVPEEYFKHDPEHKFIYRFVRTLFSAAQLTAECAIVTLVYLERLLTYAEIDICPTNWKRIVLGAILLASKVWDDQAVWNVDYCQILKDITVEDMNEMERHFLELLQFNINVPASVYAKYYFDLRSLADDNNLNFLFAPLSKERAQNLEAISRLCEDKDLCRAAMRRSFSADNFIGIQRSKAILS
# UniProt Q14790: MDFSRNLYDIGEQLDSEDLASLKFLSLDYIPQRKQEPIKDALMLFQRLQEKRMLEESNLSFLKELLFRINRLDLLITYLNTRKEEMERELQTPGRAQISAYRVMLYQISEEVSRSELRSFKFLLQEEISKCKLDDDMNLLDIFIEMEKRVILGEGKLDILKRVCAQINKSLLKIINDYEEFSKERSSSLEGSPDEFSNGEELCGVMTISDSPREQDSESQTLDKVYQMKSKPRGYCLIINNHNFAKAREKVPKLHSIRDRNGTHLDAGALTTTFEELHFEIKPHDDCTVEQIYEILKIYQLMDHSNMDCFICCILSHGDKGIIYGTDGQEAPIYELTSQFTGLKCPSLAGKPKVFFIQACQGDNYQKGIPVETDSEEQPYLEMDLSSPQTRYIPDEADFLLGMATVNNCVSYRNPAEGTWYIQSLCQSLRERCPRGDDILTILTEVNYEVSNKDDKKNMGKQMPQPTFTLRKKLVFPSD
# UniProt Q6NZI2: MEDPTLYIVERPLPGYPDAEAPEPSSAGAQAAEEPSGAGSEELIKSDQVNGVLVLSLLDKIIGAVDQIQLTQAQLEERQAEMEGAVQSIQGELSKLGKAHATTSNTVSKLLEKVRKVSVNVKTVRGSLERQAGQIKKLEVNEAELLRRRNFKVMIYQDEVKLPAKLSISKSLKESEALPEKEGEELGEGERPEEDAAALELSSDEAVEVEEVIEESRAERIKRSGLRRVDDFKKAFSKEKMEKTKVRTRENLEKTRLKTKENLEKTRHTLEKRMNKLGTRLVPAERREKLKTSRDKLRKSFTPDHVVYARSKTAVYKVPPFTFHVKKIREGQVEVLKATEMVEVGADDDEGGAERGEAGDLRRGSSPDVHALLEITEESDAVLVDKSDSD
# UniProt O60583: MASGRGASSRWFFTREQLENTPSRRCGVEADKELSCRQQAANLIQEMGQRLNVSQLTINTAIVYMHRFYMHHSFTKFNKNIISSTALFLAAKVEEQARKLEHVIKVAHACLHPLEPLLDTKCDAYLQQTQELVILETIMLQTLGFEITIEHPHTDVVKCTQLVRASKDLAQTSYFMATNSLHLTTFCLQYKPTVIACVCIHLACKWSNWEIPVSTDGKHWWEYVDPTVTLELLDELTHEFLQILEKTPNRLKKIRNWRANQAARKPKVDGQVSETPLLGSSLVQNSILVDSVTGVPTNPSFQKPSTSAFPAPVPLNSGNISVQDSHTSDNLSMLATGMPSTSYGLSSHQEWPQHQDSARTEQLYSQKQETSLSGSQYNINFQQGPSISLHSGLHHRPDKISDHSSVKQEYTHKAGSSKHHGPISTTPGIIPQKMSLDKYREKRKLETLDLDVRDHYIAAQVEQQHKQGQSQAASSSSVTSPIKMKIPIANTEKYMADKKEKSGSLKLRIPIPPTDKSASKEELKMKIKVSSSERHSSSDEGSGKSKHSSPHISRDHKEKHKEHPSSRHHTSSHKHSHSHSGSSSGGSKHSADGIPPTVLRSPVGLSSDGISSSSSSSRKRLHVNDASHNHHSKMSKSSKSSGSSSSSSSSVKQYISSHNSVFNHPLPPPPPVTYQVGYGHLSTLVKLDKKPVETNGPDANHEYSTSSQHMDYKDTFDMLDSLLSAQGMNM
# UniProt P86791: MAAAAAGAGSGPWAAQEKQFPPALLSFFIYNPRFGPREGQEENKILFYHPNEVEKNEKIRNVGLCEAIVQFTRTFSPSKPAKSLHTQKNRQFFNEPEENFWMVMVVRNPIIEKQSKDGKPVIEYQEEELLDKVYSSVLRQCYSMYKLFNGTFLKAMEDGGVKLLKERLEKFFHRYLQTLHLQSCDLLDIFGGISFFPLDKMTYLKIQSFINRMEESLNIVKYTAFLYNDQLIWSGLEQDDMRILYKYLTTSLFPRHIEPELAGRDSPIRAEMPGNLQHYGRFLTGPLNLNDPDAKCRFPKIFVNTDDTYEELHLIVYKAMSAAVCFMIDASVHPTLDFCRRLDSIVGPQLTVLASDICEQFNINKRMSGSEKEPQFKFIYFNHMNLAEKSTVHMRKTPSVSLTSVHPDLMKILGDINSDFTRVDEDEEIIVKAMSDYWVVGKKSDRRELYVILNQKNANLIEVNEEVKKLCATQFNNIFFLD
# UniProt P48643, whole entry, looked up: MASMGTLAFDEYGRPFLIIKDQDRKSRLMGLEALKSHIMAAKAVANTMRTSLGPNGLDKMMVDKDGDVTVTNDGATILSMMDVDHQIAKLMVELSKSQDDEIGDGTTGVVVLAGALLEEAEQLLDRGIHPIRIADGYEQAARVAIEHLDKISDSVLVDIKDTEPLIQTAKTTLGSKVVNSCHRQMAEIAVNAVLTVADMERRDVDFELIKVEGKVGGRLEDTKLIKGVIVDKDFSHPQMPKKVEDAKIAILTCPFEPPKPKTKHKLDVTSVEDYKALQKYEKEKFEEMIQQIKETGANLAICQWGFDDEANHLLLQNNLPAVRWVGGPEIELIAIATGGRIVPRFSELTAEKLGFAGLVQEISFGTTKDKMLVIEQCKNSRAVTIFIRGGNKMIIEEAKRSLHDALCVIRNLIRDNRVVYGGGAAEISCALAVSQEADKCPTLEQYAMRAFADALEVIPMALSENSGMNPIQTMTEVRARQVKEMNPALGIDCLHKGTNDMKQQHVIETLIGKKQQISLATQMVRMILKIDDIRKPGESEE
# UniProt Q8WUD4: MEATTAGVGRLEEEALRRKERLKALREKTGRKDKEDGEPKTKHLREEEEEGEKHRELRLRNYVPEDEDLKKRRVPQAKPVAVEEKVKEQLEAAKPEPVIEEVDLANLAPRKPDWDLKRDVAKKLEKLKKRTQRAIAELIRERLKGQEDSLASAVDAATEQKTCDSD
# UniProt Q6PII3: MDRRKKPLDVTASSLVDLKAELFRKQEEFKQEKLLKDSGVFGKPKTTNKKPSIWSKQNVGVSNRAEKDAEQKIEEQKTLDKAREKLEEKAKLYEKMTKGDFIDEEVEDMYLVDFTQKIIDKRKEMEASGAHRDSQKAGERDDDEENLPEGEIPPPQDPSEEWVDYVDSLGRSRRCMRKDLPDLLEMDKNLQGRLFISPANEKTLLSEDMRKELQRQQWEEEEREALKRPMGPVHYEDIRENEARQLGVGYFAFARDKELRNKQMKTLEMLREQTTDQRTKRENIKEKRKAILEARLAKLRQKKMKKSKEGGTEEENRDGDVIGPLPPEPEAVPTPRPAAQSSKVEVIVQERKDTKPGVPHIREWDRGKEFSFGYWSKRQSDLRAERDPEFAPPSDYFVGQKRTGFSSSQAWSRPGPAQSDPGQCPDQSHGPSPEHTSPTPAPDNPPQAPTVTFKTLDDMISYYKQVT
# The list shows a part of the results.
# Compound: Cc1sc2c(c1C)C(c1ccc(Cl)cc1)=N[C@@H](CC(=O)OC(C)(C)C)c1nnc(C)n1-2
# Assay: log2 fold change, soluble protein after heating vs DMSO (PISA); higher = thermal stabilisation; K562 lysate, 10 uM; active = over 0.2 and 3.5 SD of the protein, either way, in both replicates (recomputed)
# How it was run: (§1)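 Log-two fold change in thermal stability relative to solvent controls is reported from duplicates. For each sample, crude K562 extract from dounce-homogenised pellets in PBS pH 7.4 with 1 mM MgCl2, at 1 mg/mL protein, was treated with 10 μM compound for 30 min. Aliquots heated for 3 min across 48°C-58°C were pooled, brought to 0.5% NP-40 at 4°C and cleared at 21,000xg for 90 min. The supernatant was quantified by TMTpro 16plex LC-MS/MS with channel sums equalised.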
row,Target,log2 fold change
1,CBR1 (UniProt P16152),inactive: -0.021
2,CCDC13 (UniProt Q8IYE1),inactive: -0.448
3,CD46 isoform 2 (UniProt P15529),inactive: -0.096
4,CCDC22 (UniProt O60826),inactive: 0.053
5,CCDC88C (UniProt Q9P219),inactive: 0.153
6,CBFB isoform 2 (UniProt Q13951),inactive: -0.034
7,CCP110 (UniProt O43303),inactive: -0.143
8,CASC4 (UniProt Q6P4E1),inactive: -0.015
9,CCT6A (UniProt P40227),inactive: 0.004
10,CBL (UniProt P22681),inactive: 0.031
11,CARHSP1 (UniProt Q9Y2V2),inactive: -0.053
12,CCDC90B (UniProt Q9GZT6),inactive: -0.077
13,CCNL2 (UniProt Q96S94),inactive: -0.092
14,CASKIN2 (UniProt Q8WXE0),inactive: -0.023
15,CCDC43 (UniProt Q96MW1),inactive: -0.034
16,CARD8 isoform 5 (UniProt Q9Y2G2),inactive: -0.02
17,CD3EAP isoform 2 (UniProt O15446),inactive: -0.043

row,Target,log2 fold change
1,CCDC144A (UniProt A2RUR9),inactive: -0.191
2,CCNYL1 (UniProt Q8N7R7),inactive: -0.058
3,CCT3 (UniProt E9PM09),inactive: 0.021
4,CARD9 (UniProt Q9H257),inactive: -0.009
5,CASP8 isoform 9 (UniProt Q14790),inactive: 0.036
6,CAVIN1 (UniProt Q6NZI2),inactive: 0.001
7,CASP2 (UniProt P42575),inactive: 0.041
8,CCNT2 (UniProt O60583),inactive: -0.027
9,CCZ1 (UniProt P86791),inactive: -0.01
10,CCDC117 (UniProt Q8IWD4),inactive: -0.011
11,CCT5 (UniProt P48643),inactive: 0.033
12,CBLB (UniProt Q13191),inactive: 0.063
13,CCDC25 (UniProt Q86WR0),inactive: -0.015
14,CCDC12 (UniProt Q8WUD4),inactive: 0.004
15,CCDC174 (UniProt Q6PII3),inactive: 0.035
16,CBS (UniProt P35520),inactive: 0.034

# Compound: c1ccc([C@@H]2C[C@H]2NC2CCNCC2)cc1
# Assay: as above
# How it was run: as §1
row,Target,log2 fold change
1,CBR1 (UniProt P16152),inactive: -0.056
2,CCDC13 (UniProt Q8IYE1),inactive: 0.007
3,CD46 isoform 2 (UniProt P15529),inactive: 0.035
4,CCDC22 (UniProt O60826),inactive: 0.032
5,CCDC88C (UniProt Q9P219),inactive: -0.019
6,CBFB isoform 2 (UniProt Q13951),inactive: -0.122
7,CASC4 (UniProt Q6P4E1),inactive: -0.055
8,CCT6A (UniProt P40227),inactive: 0.025
9,CBL (UniProt P22681),inactive: 0.015
10,CARHSP1 (UniProt Q9Y2V2),inactive: 0.005
11,CCDC90B (UniProt Q9GZT6),inactive: -0.018
12,CCNL2 (UniProt Q96S94),inactive: -0.004
13,CASKIN2 (UniProt Q8WXE0),inactive: -0.023
14,CCDC43 (UniProt Q96MW1),inactive: -0.028
15,CARD8 isoform 5 (UniProt Q9Y2G2),inactive: -0.083
16,CD3EAP isoform 2 (UniProt O15446),inactive: -0.057
17,CCNYL1 (UniProt Q8N7R7),inactive: -0.079
18,CARD9 (UniProt Q9H257),inactive: 0.035
19,CASP8 isoform 9 (UniProt Q14790),inactive: 0.014
20,CAVIN1 (UniProt Q6NZI2),inactive: 0.003
21,CASP2 (UniProt P42575),inactive: -0.021
22,CCZ1 (UniProt P86791),inactive: 0.013
23,CCDC117 (UniProt Q8IWD4),inactive: -0.005
24,CCT5 (UniProt P48643),inactive: -0.019
25,CBLB (UniProt Q13191),inactive: 0.014
26,CCDC25 (UniProt Q86WR0),inactive: 0.164
27,CCDC12 (UniProt Q8WUD4),inactive: 0.009
28,CCDC174 (UniProt Q6PII3),inactive: -0.014
29,CBS (UniProt P35520),inactive: 0.028
